Results are given in words; binding and its absence hold for the method and conditions named. In cells and extracts the contact can be indirect. Some entries that bind do so weakly or less than the wild type. Sequences can lack the tags named with a protein.
Key:
[1] = target: T1, HA-DAP5 (UniProt P78344); assay: co-IP; IP of HA-DAP5, HA-eIF4GI or HA-eIF4GII from transfected MDA-MB-231 lysate (50 mM TrisHCl pH 7.5, 150 mM NaCl, 0.5% NP-40, Benzonase, RNase A), immunoblot of interacting proteins
T1 sequence: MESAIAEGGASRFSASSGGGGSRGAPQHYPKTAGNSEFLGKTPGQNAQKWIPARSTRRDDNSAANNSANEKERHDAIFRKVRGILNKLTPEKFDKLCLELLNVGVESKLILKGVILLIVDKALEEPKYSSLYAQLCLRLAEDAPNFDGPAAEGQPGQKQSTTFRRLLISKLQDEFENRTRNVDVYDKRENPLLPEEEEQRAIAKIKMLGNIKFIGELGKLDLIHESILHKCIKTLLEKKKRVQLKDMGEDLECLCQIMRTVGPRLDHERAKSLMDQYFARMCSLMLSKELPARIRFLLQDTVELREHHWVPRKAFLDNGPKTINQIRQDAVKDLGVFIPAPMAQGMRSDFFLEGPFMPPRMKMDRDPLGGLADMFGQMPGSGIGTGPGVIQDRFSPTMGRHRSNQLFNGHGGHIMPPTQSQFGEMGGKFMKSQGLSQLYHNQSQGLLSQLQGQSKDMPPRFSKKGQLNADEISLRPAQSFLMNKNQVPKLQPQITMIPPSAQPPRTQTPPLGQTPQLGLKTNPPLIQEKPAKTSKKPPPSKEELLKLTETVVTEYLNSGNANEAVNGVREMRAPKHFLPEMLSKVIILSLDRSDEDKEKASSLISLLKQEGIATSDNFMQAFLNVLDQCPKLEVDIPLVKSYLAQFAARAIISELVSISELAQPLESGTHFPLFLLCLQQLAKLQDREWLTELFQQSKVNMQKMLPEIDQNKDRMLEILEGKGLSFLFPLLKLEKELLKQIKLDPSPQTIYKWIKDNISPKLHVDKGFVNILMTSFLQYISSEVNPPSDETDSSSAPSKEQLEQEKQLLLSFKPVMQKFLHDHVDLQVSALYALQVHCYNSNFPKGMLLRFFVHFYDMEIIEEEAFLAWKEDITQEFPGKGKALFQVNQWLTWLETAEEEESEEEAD

Chains of the proteins cited; added tags and fusions are not shown.
UniProt P51114: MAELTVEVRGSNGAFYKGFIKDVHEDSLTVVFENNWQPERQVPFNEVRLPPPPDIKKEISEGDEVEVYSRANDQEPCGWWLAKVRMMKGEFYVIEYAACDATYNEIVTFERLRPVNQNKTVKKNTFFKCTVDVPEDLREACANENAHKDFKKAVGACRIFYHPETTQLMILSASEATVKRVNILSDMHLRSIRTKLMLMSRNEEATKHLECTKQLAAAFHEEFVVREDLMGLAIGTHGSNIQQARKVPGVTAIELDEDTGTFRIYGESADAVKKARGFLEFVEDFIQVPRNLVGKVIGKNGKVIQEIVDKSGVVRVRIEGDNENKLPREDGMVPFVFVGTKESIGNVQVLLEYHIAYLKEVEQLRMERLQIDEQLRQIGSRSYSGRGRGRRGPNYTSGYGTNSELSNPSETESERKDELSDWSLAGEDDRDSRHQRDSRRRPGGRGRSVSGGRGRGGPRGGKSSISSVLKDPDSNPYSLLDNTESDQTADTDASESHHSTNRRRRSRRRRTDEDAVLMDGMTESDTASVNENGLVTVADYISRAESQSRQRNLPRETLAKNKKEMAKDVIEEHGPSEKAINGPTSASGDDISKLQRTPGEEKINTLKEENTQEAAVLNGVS
UniProt P51116: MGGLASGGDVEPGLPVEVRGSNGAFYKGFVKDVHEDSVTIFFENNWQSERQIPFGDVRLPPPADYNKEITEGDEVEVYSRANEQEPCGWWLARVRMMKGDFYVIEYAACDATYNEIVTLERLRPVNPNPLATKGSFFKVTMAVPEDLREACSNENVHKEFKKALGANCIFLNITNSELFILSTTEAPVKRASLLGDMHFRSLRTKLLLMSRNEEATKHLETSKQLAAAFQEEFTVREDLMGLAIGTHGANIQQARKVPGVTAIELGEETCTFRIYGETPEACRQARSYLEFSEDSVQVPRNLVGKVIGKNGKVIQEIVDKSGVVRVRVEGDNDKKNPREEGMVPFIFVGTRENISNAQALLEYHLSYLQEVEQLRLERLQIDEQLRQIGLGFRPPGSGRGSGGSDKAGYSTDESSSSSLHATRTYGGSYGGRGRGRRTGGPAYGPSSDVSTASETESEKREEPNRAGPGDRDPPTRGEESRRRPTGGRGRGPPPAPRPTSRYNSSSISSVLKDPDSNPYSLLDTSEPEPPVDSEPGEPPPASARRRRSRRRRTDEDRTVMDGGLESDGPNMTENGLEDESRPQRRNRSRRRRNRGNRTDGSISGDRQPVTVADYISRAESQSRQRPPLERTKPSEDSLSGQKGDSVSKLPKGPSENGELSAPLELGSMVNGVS
UniProt O15371: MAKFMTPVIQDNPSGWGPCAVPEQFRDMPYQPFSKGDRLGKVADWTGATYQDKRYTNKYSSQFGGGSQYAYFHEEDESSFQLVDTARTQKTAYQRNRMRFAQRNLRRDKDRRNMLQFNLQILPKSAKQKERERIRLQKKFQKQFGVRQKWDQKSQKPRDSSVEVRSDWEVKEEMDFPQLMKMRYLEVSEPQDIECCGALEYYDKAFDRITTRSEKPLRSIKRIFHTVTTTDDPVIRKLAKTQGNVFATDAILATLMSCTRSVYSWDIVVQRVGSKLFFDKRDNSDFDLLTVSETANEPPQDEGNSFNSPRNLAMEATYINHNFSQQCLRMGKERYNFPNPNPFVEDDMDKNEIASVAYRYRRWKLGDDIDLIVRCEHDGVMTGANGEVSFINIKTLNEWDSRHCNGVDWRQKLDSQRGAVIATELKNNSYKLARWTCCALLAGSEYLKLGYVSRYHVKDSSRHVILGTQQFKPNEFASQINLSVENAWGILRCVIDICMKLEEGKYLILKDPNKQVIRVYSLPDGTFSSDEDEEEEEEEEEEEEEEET

[2] = target: T1, HA-DAP5; assay: cross-linking; live cells incubated with 0.6 mM BS3 for 30 min at room temperature, quenched with Tris, then lysis, IP of HA-DAP5 and immunoblot (anti-DAP5, then anti-eIF3d) on SDS-denaturing gel

Q: For FXR1 (from UniProt P51114 1-621), which binding [1] is on record?
A: The binding was “binds”.

Q: With FXR2 (from UniProt P51116 1-673) as the substance, how does the binding [1] read?
A: Its binding is “binds”.

Q: eIF3d (from UniProt O15371 1-548) was tested. Which binding [1] did it give?
A: The binding was “binds”.

Q: And the binding [2]?
A: Its binding is “binds”.

Source: PMC6076257
